Measurements as given in patent US12729221B2, “Anti-inflammatory peptide and use thereof” (MITO QUEST CO., LTD., priority 2020, dated 2026).
Part of at least one peptide drawing is inferred or uncertain, most often the ends. Where no end group is shown, it is not given here.

Tested on: polyIC-induced apoptosis
Test: polyIC-induced apoptosis
Format: cell-based
Details: FIG. 13B-E

SLVLAYARW [MQP-37D6Y]
polyIC-induced apoptosis: inhibited polyIC-induced apoptosis effectively
